The values that follow come from PMC6716272 (Frontiers in Pharmacology, 2019).

The nature of the series: peptide synthesis. Particulars: late stage modification step.

Consider “(S)-1-((S)-4-amino-2-((3S,4S)-4-((S)-1-((S)-1-carboxy-4-guanidinobutylamino)-1-oxo-propan-2-ylcarbamoyl)pyrrolidine-3-carboxamido)-4-oxobutanoyl)pyrrolidine-2-carboxylic acid”, for which the step yield by setting is: (run 1) 67%; (run 2) 71%.
